Earlier results on three molecules are cited in publication PMC10369073, “Production, identification, in silico analysis, and cytoprotection on H2O2-induced HUVECs of novel angiotensin-I-converting enzyme inhibitory peptides from Skipjack tuna roes” (Frontiers in Nutrition, 2023).

Protein sequences, listed by entry. Tags and fused reporters are not part of them. Residues count along the entry.
UniProt P12822, 34-1310 limits assumed: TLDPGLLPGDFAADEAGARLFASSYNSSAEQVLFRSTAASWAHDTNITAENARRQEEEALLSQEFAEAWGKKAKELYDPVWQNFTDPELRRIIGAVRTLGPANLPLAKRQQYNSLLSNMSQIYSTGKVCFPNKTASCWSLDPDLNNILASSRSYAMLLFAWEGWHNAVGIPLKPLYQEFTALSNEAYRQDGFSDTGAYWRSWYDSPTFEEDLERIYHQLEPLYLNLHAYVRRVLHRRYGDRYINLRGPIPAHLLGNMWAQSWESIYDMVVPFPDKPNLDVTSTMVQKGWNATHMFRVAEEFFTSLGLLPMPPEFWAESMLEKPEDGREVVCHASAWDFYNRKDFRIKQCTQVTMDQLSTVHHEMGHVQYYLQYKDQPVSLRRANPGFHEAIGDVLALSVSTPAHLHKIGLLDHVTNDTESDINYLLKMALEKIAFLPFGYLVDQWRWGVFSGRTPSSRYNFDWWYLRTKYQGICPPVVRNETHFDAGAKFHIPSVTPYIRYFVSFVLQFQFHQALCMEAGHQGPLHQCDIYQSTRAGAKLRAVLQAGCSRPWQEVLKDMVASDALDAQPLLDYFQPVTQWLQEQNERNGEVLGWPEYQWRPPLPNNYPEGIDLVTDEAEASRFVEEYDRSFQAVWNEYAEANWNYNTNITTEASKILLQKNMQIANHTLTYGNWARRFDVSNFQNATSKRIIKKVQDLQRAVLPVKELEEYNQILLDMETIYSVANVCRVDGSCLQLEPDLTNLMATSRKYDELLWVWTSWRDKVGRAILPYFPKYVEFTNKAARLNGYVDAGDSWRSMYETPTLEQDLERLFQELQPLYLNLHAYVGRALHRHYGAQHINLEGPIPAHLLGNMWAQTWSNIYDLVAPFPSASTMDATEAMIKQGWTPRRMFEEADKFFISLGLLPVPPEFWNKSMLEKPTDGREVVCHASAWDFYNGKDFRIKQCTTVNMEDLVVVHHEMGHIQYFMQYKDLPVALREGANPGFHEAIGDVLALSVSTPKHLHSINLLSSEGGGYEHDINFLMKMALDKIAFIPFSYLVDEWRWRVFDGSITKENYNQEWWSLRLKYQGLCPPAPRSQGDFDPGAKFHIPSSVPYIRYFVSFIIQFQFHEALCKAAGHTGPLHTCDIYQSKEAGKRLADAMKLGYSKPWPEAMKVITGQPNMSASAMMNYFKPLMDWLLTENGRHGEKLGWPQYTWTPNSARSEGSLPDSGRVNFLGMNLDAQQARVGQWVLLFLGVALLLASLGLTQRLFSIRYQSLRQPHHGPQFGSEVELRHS

Structures were worked out from names or drawings and are uncertain.

For data set [1], the target named is T1, ACE (Oryctolagus cuniculus, UniProt P12822). To be noted: cited from earlier work; for IC50: read-out: ACEi IC50. As for the experimental part:
The IC50 values of TRP3, TRP6, TRP9, and TRP12 were 0.93 ± 0.07, 0.79 ± 0.06, 0.49 ± 0.06, and 0.67 ± 0.05 mg/mL, respectively, which were lower than those of ACEi peptides, such as LAPPSTRH (1.31 mg/mL) ([61]), GPWGPA ([24]), VAP (1.71 mg/mL) ([62]), MVGSAPGVL (3.09 mg/mL) ([63]), FRKE (6.97 mg/mL) ([18]), FQK (1.73 mg/mL) ([22]), YLRLHF (1.26 mg/mL) ([64]), NFRPQ (4.28 mg/mL) ([17]), and FEM (2.18 mg/mL) ([37]), etc. || Amino acids are another factor affecting the ability of ACEi peptides. […] Moreover, the C- and N-terminal amino acids are believed to play a crucial function in the activity of ACEi peptides ([21]). Yu et al. ([56]) reported that C-terminus (such as Trp, Tyr, Pro, or Phe) and N-terminus (such as Pro, Phe, Trp, or Met) hydrophobic amino acid residues have positive effects on the ACEi ...

Data set [2] concerns the target T1, ACE. Particulars: cited from earlier work. The text has this:
Peptide size and amino acid sequence are two key factors affecting the ACEi ability of BPs ([17], [21]). Peptide size decides the affinity between BPs and ACE because big polypeptides cannot be accommodated in and access the narrow channel of ACE ([21]). For example, VPP and IPP can easily access and bind the Zn^2+ of ACE channel, but ALPMHIR has low binding scores with ACE because it uncomfortably accesses the narrow channel ([19]). In the experiment, TRP3, TRP6, TRP9, and TRP10 are tetrapeptides or pentapeptides, and small size increases their access to the active channel of ACE, and this ha ...

As for `NCCCC[C@H](NC(=O)[C@@H]1CCCN1C(=O)[C@@H](N)Cc1ccc(O)cc1)C(=O)O`, the IC50 at ACE [1] was 38.7 µM. As to `NCCCC[C@H](NC(=O)[C@H](CCC(N)=O)NC(=O)[C@@H](N)Cc1ccccc1)C(=O)O`, the “ACEi IC50” value at ACE [1] is 1730 µg/mL. Turning to `NCCCC[C@H](NC(=O)[C@H](CO)NC(=O)[C@@H](N)Cc1ccc(O)cc1)C(=O)O`, at ACE [1], the concentration for half-maximal inhibition (IC50) is 76 µM. In addition, at ACE [2], the “affinity with ACE (docking)” value was -7.9 kcal/mol.

For orientation: IC50 means the concentration needed to halve the response being measured.
